Reference: paper PMC11077049
Construct, isoform or probe ends are uncertain for at least one entry. For some assays here: A weaker result is weaker than the reference pair of the same experiment. At least one verdict rests on a figure or table, not on a statement of the authors.

Amino acid sequences for entries named in this document (tags omitted). Residues count along the entry.
UniProt Q07955, 199-248: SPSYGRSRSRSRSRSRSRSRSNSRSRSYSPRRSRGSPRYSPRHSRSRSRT
UniProt Q07955, whole entry: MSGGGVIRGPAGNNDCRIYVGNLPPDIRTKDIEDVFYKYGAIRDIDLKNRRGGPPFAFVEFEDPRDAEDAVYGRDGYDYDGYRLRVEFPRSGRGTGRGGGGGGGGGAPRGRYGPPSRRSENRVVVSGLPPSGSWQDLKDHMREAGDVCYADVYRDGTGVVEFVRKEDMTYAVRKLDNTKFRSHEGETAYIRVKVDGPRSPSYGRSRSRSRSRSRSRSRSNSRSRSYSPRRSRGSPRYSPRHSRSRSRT

How the values were obtained:
SRSF1 RS (human) [1] = target: SRSF1 RS (human) (UniProt Q07955); assay: FP; conditions: 37 C 30 min then 25 C 10 min, 21-mers: 25 mM KCl, 0.25 M Arg/Glu, 20 mM Tris-HCl pH 7.5, 0.1 mM EDTA, 0.1 mM TCEP, 0.02% Tween 20, 8-mers: 35 mM K3PO4, recombinant protein, residues 199-248, label: 5' fluorescein; for binding result: 70 mM K3PO4, 10 nM RNA
[2] = target: SRSF1 full-length (human) (UniProt Q07955); assay: FRET unfolding; conditions: recombinant protein; residues 1-248; label: 5' Cy5, 3' Cy3
SRSF1 RS (human) [3] = target: SRSF1 RS (human) (UniProt Q07955); assay: FRET unfolding; conditions: recombinant protein; residues 199-248; label: 5' Cy5, 3' Cy3

## CCCCCCCC [8C]
SRSF1 RS (human) [1]; 8-mer buffer, 35 mM K3PO4, 10 nM RNA
  Kd: 1.22 µM

## CUCUCUCU [4CU]
SRSF1 RS (human) [1]
  binding result: binds more weakly

## GAGAGAGA [4GA]
SRSF1 RS (human) [1]
  binding result: binds more weakly

## UGGGGGCUGGGCGGGGACCGGGU [Cy3-Cy5 ARPC2 GQ]
[2]
  binding result: binds
SRSF1 RS (human) [3]
  binding result: binds
